Taken from: PubChem BioAssay AID1259254 (NCATS, 2017)

Test: 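Genome-wide screen for genes that prevent DNA re-replication in cancer cells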 (primary screen)
System: human HCT116 colorectal cancer cells
Reagents: single siRNA against human genes
Duration: 3 days
Measured: 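Imaged Hoechst DNA stain sorts each cell into a cycle phase by DNA amount; per plate, G2 fraction set to 0% for non-targeting and 100% for GMNN siRNA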
Reading the numbers: G2 robust z-score: higher = more G2 cells, more excess DNA replication
Call rule: 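An siRNA counts as active if its G2 robust z-score lies at least 5 MADs above the screen median; here such calls match roughly 38% of GMNN control or more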
This is one part, drawn at random, of about 59,000 reagents tested. About 1,550 of them (2.6%) count as active. 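G2 share is only a proxy for re-replication; each gene was hit by three separate siRNAs, and active genes were retested.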 Entries without a mark were called inactive. The numbers tell different reagents against one gene apart. Further read-outs or replicates are left out here. No sequences are given here. The record does not give: the amount of reagent.

no.	target	reagent no.	G2 robust z-score
1	GALNTL5	1	-0.414
2	GALNTL5	2	-0.325
3	GALNTL5	3	-0.272
4	LOC646804	1	-0.774
5	LOC646804	2	-0.303
6	LOC646804	3	2.27
7	EOMES	1	-1.62
8	EOMES	2	0.746
9	EOMES	3	-1.37
10	COPA	1	2.47
11	COPA	2	1.98
12	COPA	3	1.03
13	MT1B	1	2.67
14	MT1B	2	2.67
15	MT1B	3	1.62
16	LINC00614	1	0.451
17	LINC00614	2	0.156
18	LINC00614	3	-0.187
19	G6PD	1	-0.804
20	G6PD	2	0.102
21	G6PD	3	2.48
22	PEG3	1	-0.282
23	PEG3	2	1.47
24	PEG3	3	0.216
25	GPR158	1	-0.37
26	GPR158	2	0.678
27	GPR158	3	2
28	CBLN1	1	3.6
29	CBLN1	2	1.21
30	CBLN1	3	4.99

Quoted from the listing (2 entries):
no.	target	reagent no.	G2 robust z-score
6	LOC646804	3	2.27
7	EOMES	1	-1.62
